From the supplement of paper PMC11006884 come the findings set out here.

Chains of the proteins cited; added tags and fusions are not shown. Lines headed by an entry give the natural chain unless they say otherwise; changes in a name come on top.
UniProt P13489: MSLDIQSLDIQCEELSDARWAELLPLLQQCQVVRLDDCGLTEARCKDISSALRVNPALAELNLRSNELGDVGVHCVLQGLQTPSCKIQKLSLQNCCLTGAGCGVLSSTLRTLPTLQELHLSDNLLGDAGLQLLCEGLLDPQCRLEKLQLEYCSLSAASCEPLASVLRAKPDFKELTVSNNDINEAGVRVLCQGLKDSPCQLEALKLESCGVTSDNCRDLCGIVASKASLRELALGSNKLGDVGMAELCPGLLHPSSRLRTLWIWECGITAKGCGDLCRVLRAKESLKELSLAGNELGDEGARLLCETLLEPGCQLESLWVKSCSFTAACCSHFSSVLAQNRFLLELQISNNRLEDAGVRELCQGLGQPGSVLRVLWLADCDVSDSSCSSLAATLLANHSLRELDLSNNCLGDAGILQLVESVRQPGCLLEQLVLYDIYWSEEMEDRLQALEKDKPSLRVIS
UniProt P14618, whole entry, looked up: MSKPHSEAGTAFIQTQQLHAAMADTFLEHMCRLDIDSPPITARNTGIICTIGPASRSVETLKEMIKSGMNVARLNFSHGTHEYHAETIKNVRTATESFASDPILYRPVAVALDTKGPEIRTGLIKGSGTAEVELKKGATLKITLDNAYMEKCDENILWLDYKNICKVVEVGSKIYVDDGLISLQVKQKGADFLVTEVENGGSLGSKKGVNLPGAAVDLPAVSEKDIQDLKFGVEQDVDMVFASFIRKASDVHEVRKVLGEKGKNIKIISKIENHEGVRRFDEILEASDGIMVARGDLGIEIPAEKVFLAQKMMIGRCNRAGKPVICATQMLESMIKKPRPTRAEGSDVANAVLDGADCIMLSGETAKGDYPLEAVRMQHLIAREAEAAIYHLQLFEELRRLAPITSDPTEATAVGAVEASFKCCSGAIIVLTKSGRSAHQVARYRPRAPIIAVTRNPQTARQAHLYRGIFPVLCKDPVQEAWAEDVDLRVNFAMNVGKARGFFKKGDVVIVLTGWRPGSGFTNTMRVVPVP
UniProt P13667: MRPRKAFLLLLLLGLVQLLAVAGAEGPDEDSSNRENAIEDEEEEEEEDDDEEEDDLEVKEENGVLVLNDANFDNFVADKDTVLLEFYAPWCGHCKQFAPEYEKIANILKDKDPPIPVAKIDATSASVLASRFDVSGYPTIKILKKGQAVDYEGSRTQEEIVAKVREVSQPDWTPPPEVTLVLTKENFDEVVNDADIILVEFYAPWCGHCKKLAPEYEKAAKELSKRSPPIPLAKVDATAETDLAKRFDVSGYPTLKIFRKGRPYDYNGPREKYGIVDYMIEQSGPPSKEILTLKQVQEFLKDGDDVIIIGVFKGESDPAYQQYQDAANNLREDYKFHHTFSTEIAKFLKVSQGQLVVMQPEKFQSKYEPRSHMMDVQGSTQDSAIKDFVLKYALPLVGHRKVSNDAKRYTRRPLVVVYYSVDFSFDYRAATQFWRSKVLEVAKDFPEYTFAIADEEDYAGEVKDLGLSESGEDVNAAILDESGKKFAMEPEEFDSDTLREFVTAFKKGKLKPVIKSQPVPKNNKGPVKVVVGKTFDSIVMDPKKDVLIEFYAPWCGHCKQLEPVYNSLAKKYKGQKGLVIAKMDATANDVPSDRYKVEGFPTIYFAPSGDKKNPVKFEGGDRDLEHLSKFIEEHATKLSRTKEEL
UniProt P0DMV8, whole entry, looked up: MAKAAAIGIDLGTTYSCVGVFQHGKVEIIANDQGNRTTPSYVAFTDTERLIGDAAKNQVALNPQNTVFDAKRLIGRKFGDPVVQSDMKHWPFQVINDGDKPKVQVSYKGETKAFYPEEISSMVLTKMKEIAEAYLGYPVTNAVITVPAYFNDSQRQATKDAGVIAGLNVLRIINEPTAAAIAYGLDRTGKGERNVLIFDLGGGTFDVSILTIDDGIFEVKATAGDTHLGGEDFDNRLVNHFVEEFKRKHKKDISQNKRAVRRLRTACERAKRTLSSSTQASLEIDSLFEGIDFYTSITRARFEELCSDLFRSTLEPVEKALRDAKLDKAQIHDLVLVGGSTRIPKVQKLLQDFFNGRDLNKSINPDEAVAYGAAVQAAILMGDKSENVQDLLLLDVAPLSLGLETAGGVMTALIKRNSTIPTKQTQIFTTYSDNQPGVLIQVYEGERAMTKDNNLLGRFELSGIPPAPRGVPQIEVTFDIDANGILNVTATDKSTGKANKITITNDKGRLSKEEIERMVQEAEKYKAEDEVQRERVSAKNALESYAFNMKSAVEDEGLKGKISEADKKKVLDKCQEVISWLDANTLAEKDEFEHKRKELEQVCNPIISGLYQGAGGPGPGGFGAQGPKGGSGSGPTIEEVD
UniProt P09874, whole entry, looked up: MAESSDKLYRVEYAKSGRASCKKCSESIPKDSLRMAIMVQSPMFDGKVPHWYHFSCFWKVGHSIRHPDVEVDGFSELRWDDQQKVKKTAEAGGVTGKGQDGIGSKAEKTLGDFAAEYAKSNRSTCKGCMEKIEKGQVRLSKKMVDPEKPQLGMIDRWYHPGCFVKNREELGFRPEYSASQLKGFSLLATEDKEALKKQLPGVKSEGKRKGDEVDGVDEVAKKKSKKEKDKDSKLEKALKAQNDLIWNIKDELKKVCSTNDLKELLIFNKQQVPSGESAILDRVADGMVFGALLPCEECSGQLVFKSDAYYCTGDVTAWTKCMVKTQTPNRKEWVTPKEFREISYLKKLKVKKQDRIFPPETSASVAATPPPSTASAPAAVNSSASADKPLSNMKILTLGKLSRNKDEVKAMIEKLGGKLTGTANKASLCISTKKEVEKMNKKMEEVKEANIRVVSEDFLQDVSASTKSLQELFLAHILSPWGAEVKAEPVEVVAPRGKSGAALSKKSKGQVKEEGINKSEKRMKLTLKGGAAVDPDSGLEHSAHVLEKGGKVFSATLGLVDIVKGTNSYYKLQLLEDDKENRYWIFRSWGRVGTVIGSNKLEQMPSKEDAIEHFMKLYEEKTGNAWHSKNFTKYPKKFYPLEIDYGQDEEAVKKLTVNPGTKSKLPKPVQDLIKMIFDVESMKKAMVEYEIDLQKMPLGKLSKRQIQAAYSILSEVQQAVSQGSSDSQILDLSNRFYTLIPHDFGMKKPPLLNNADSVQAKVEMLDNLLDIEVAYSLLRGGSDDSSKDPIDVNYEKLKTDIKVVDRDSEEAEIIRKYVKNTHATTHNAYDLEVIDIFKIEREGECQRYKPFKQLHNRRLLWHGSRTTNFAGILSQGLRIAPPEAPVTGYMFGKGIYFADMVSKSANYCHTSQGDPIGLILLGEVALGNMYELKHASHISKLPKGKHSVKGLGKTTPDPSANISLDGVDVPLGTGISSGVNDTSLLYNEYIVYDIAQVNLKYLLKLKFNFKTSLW
UniProt P13798: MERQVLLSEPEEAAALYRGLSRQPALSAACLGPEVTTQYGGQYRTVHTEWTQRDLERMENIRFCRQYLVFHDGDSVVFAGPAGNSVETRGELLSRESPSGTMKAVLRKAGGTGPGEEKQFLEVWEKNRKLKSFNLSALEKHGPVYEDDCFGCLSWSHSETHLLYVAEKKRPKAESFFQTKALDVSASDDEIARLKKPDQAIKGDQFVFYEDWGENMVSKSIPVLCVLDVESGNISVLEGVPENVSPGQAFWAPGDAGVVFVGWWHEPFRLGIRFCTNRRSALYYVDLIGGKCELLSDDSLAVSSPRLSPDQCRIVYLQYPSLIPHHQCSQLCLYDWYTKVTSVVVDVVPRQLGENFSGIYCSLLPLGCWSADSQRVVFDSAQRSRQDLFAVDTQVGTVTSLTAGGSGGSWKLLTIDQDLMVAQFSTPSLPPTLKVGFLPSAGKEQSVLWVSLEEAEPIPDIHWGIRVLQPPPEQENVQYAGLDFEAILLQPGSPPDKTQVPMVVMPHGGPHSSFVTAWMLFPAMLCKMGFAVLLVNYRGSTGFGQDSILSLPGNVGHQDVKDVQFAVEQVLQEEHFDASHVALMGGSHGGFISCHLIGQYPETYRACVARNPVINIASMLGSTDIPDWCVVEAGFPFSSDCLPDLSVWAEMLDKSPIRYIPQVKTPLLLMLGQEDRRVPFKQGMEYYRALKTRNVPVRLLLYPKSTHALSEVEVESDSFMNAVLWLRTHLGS
UniProt P16152: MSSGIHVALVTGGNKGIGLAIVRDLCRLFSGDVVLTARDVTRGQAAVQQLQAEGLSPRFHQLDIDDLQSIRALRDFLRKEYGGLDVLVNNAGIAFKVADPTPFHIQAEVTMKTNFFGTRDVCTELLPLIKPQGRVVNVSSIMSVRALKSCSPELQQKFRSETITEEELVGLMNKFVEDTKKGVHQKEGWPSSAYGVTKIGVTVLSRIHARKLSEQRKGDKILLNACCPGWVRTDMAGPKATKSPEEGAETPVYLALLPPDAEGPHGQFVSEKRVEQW
UniProt P07814: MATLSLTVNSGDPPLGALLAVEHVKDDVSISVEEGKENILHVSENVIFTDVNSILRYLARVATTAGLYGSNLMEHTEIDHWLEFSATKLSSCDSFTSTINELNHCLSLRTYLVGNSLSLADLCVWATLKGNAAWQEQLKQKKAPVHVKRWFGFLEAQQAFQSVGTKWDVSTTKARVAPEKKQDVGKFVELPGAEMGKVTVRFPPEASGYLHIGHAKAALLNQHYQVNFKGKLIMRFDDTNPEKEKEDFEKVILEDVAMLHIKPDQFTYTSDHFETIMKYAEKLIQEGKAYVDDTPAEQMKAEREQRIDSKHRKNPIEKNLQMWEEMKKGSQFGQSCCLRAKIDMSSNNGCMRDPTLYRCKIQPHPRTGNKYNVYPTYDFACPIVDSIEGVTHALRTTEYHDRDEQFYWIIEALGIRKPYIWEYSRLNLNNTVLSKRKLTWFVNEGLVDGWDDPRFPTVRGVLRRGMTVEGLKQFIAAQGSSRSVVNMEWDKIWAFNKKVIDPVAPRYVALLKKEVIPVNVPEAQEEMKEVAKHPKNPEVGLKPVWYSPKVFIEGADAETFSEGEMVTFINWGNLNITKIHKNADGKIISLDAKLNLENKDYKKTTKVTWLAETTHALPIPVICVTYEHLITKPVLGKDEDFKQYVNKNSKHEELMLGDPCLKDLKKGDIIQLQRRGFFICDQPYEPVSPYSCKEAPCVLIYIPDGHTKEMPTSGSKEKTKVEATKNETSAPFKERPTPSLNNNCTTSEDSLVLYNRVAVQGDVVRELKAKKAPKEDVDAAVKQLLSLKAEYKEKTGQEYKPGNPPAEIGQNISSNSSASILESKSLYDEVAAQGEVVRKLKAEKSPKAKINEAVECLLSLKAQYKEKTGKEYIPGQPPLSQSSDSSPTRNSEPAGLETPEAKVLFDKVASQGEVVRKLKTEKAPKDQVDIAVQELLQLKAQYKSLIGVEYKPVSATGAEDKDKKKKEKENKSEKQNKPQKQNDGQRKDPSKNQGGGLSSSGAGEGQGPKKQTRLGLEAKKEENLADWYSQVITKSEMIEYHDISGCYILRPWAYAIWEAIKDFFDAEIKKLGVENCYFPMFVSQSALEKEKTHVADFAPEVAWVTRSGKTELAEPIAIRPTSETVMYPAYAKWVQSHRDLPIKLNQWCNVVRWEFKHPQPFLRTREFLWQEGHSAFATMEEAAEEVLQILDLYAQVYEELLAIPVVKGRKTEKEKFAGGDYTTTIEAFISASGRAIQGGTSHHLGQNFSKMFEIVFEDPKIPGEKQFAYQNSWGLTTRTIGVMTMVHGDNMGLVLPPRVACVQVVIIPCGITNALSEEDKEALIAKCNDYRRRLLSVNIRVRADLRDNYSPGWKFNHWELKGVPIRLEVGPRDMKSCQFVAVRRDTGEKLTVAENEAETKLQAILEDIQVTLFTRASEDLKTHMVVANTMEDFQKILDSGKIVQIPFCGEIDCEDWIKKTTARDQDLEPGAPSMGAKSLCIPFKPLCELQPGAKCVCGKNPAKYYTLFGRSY
UniProt P15311, whole entry, looked up: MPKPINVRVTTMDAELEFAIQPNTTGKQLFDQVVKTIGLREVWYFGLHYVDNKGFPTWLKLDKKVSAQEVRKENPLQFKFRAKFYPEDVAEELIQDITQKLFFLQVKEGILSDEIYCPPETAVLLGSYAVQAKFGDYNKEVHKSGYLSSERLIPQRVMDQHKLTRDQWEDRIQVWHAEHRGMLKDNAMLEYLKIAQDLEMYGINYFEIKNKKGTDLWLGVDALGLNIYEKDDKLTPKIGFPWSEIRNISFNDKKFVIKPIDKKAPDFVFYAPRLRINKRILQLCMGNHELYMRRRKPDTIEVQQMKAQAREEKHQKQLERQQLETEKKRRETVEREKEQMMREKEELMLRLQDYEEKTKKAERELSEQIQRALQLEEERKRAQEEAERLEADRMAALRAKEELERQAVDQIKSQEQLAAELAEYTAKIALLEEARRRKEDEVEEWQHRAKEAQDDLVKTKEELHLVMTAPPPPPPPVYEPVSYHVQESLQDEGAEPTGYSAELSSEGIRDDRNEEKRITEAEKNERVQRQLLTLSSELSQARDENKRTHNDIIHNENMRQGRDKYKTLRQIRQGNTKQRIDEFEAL
UniProt P15531, whole entry, looked up: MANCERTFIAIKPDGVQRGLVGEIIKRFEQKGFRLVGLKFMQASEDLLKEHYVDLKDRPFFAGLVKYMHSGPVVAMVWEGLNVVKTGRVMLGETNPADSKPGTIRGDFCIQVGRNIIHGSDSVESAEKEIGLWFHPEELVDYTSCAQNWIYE

This is a selection; strong and weak results do not stand in their true shares.

Compound in this test: COC(=O)C#Cc1ccccc1 [methyl 3-phenylpropiolate]
Description: log2 ratio of iodoacetamide-alkyne labeling of the cysteine site, DMSO over compound (competition); higher = stronger covalent engagement of the cysteine by the compound, active = 1 or more. To be noted: 500 µM; treatment time 1 h; system: HEK293T cell lysate. The method, boiled down:
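HEK293T lysate at 2 mg/mL was treated with vehicle or electrophile (500 µM) for 1 h at ambient temperature, then labelled with iodoacetamide alkyne (1 h), clicked to sCIP-TMT reagents, pooled, digested with trypsin overnight at 37 °C, enriched on streptavidin and eluted with acid. Peptides were analysed by Orbitrap Eclipse LC-MS/MS with FAIMS and quantified in FragPipe, using duplicate channels and three replicates, with cysteines quantified in only one replicate excluded. The log2 competition ratio for each cysteine is the mean control-channel reporter intensity divided by the mean compound-channel reporter intensity.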
For TXN C35 (UniProt P10599), the “log2 ratio of iodoacetamide-alkyne labeling” value (from here on “log2 ratio”) was active: 1.14.
Next, SP1 C755 (UniProt P08047): inactive: 0.59; RNH1 C75 (UniProt P13489): inactive: 0.145; UniProt P14618_C49: inactive: -0.193.
MTHFD1 C147 (UniProt P11586): the “log2 ratio” value is inactive: -0.0994.
The figure for PDIA4 C555 (UniProt P13667) is inactive: 0.315; for DSP C1855 (UniProt P15924) it is inactive: 0.107.
Turning to UniProt P08240_C253, the “log2 ratio” value is inactive: 0.441.
Next, PCNA C81 (UniProt P12004): inactive: 0.0632.
The figure for PRKCSH C471 (UniProt P14314) is inactive: 0.0601; for MTHFD1 C785 (UniProt P11586) it is inactive: -0.0259.
The figure for PLS3 C33 (UniProt P13797) is active: 1.04; for UniProt P0DMV8_C603 it is inactive: 0.0788.
Take ALAS1 C249 (UniProt P13196): the “log2 ratio” value was inactive: 0.343.
Next, PARP1 C429 (UniProt P09874): inactive: 0.192.
APEH C30 (UniProt P13798): the “log2 ratio” value was inactive: -0.0188.
Take GSPT1 C276 (UniProt P15170): the “log2 ratio” value was inactive: 0.0355.
Next, EEF2 C466 (UniProt P13639): inactive: 0.152.
Turning to HSP90AB1 C521 (UniProt P08238), the “log2 ratio” value was inactive: 0.298.
Next, CBR1 C26 (UniProt P16152): inactive: -0.382; EPRS C692 (UniProt P07814): inactive: 0.316.
Next, IDE C966 (UniProt P14735): inactive: 0.815; GSPT1 C327 (UniProt P15170): inactive: 0.0988; AKR1B1 C299 (UniProt P15121): inactive: 0.135.
As to EZR C117 (UniProt P15311), the “log2 ratio” value was inactive: 0.178.
As for NME1 C109 (UniProt P15531), the “log2 ratio” value is inactive: -0.00281.
For the target HARS C507 (UniProt P12081), the “log2 ratio” value is inactive: 0.276.
Next, EZR C284 (UniProt P15311): inactive: -0.0133; UniProt P14618_C423: inactive: 0.112.
On to RPS2 C143 (UniProt P15880), for which the “log2 ratio” value was inactive: 0.0382.
The figure for DBT C333 (UniProt P11182) is inactive: -0.027.
As for DLD C85 (UniProt P09622), the “log2 ratio” value is inactive: 0.873.
The figure for HSP90AA1 C597 (UniProt P07900) is inactive: -0.0676.
Next, EEF2 C651 (UniProt P13639): inactive: 0.0919; PCNA C162 (UniProt P12004): inactive: 0.16; MAPT C639 (UniProt P10636): inactive: 0.479.
The figure for CYC1 C271 (UniProt P08574) is inactive: 0.0519.
